# Measurements taken from the supplement of paper PMC7024190.
# Counter-ions that a name gives are not always drawn. The list shows a part of the results. This data set is noisy: repeats of one test often differ as much as different tests do.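 Human embryonic kidney cells were transiently transfected with a plasmid bearing a Renilla luciferase gene under the HSV-TK promoter. This first-round screen tests roughly ten thousand compounds for ones that increase reporter output.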
# System: HEK 293FT
# Assay: log relative Renilla luciferase luminescence (reporter expression vs reference, reference not stated) (log (base not stated)); higher = higher recombinant reporter expression
# Settings: 10 µM; time after transfection 48 h
row,Compound,log
1,O=C(NC1CCCCC1)c1cc(-c2ccccc2)nc2ccccc12 [Cycinchophene],-0.0138
2,CNC(=O)c1nc[nH]c1C(=O)NC [Norantiffein],0.0664
3,CCC(=O)OCC(=O)[C@@]1(OC(=O)CC)[C@@H](C)C[C@H]2[C@@H]3CCC4=CC(=O)C=C[C@]4(C)[C@@]3(F)[C@@H](O)C[C@@]21C [Betamethasone dipropionate],-0.0949
4,COc1cc2c(cc1OC)C(=O)Cc1ccc3c(c1CN(C)CC2)OCO3 [Cryptopine],-0.169
5,COc1ccc(C(=O)c2ccc(OC)cc2O)c(O)c1,0.0669
6,CC1(C)S[C@@H]2[C@H](NC(=O)Cc3ccccc3)C(=O)N2[C@H]1C(=O)O [Benzylpenicillin],0.186
7,Nc1ccc(S(=O)(=O)Nc2ccc(Cl)nn2)cc1 [Sulfachlorpyridazine],0.128
8,CCCc1nc(C(C)(C)O)c(C(=O)O)n1Cc1ccc(-c2ccccc2-c2nnn[nH]2)cc1 [Olmesartan],-0.964
9,Cc1cc(=O)oc2cc(O)ccc12 [Hymecromone],0.139
10,Cc1cc(NS(=O)(=O)c2ccc(N)cc2)no1 [Sulfamethoxazole],0.0438
11,O=C1c2ccccc2C(=O)c2c(O)ccc(O)c21 [Quinizarin],0.114
12,CC(C)=CCc1c2c(c3occ(-c4ccc(O)cc4)c(=O)c3c1O)C=CC(C)(C)O2 [Osaiin],-0.0696
13,CN1C(=S)SC(c2ccccc2)N(C)C1c1ccccc1 (configuration not stated),0.142
14,CCCCCCCCC1CC1C(=O)O (configuration not stated) [Cyclopropanecarboxylate-octyl],0.121
15,CC(C)Cn1cnc2c1c(=O)n(C)c(=O)n2C [Isbufylline],0.0125
16,NCCCC[C@H](N[C@@H](CCc1ccccc1)C(=O)O)C(=O)N1CCC[C@H]1C(=O)O [Lisinopril],0.127
17,Nc1ncnc2c1ncn2CC(O)CO (configuration not stated) [9-Dihydroxypropyladenine],-0.157
18,COc1cc(C)c(C(=O)Oc2cc(C)c(C(=O)O)c(O)c2C)c(OC)c1C [Diffractaic acid],0.149
19,COc1ccc(NS(=O)(=O)c2ccc(NC(=O)c3ccccc3C(=O)O)cc2)nn1 [Phthalylsulfapyridazine],0.0323
20,CCCCCCC(=O)O[C@]1(C(C)=O)CC[C@H]2[C@@H]3CCC4=CC(=O)CC[C@]4(C)[C@H]3CC[C@@]21C [Hydroxyprogesterone heptanoate],0.0267
21,Cc1nnc(SCC2=C(C(=O)O)N3C(=O)[C@@H](NC(=O)Cn4cnnn4)[C@H]3SC2)s1 [Cefazolin],-0.0163
22,CC(C)(C)NC[C@H](O)c1ccc(O)c(CO)c1 [Levalbuterol Hydrochloride],-0.236
23,COc1ccc(CCC(=O)c2c(O)cc(O[C@@H]3O[C@H](CO)[C@@H](O)[C@H](O)[C@H]3O[C@@H]3O[C@@H](C)[C@H](O)[C@@H](O)[C@H]3O)cc2O)cc1O [Neohesperidin dihydrochalcone],0.077
24,CCCS(=O)(=O)c1ccc2nc(NC(=O)OC)[nH]c2c1 [Albendazole sulfone],0.139
25,COc1ccc2ccc(=O)oc2c1OCC=C(C)C [7-Methoxy-8-prenyloxycoumarin],0.0279
26,COc1ccc2c(c1OC)CN(C)CCc1cc3c(cc1C(=O)C2)OCO3 [Allocryptopine],0.169
27,CCN(CC)CCOc1ccccc1C(=O)CCc1ccccc1 [Etafenone],0.0125

# Some of these compounds in order of count of non-hydrogen atoms, falling:
row,Compound,log
20,CCCCCCC(=O)O[C@]1(C(C)=O)CC[C@H]2[C@@H]3CCC4=CC(=O)CC[C@]4(C)[C@H]3CC[C@@]21C [Hydroxyprogesterone heptanoate],0.0267
5,COc1ccc(C(=O)c2ccc(OC)cc2O)c(O)c1,0.0669
9,Cc1cc(=O)oc2cc(O)ccc12 [Hymecromone],0.139
